In this test the target is DDM1 fused with N-terminal YFP (YFPN) (Arabidopsis) (UniProt Q9XFH4). As to the kind of experiment: split reporter; bimolecular fluorescence complementation, transient expression of split YFP (text: GFP) fusion proteins in Arabidopsis leaves; signal in the nucleus.

Protein sequences, listed by entry. Tags and fused reporters are not part of them.
UniProt P34881: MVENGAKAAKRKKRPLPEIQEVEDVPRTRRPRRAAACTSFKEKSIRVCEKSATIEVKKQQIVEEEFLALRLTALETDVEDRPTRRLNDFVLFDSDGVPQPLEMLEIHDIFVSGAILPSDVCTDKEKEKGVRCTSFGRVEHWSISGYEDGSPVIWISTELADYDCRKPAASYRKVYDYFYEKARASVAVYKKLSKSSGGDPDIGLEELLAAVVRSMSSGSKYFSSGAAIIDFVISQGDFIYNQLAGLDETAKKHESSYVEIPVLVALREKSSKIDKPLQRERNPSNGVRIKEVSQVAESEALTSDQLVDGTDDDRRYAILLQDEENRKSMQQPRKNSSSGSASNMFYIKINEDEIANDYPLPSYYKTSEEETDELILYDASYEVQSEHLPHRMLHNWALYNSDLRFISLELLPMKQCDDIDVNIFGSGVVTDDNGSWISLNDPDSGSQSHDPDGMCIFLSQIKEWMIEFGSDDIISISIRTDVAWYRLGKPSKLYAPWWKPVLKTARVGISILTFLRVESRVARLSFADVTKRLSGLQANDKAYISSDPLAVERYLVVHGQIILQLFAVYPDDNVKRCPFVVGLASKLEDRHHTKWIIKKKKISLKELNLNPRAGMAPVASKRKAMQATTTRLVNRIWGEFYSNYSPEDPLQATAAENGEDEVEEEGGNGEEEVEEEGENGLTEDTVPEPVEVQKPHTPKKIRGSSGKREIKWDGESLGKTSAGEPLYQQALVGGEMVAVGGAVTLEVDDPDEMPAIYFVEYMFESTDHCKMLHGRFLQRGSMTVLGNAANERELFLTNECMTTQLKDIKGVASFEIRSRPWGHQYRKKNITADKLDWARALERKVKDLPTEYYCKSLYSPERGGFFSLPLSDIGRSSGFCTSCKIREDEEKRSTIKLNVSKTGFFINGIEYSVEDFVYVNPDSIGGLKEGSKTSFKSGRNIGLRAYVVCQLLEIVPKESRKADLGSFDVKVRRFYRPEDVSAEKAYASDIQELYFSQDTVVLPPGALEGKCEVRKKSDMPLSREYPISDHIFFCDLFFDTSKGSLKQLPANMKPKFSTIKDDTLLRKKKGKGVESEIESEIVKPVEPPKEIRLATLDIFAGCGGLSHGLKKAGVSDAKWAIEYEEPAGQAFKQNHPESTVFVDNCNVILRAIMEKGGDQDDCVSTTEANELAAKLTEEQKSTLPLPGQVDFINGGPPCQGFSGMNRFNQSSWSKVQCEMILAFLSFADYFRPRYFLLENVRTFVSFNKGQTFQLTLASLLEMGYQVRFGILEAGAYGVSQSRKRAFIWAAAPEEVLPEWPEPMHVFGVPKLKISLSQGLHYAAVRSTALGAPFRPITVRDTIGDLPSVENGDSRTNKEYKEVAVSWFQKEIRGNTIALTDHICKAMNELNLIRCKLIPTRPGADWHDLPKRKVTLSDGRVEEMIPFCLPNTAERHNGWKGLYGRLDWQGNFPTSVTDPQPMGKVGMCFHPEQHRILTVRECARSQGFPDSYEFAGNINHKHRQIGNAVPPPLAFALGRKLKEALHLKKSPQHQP

These are yes or no findings as the source states them, for the method shown. Binding seen in cells or lysates may run through a third protein. Some entries that bind do so weakly or less than the wild type.

Turning to “MET1 with C-terminal YFP (YFPC) (from UniProt P34881 1-1534) (enzyme)”, the binding entry was “binds”.
